## Microarray screen: hit calls

Targets (5′ to 3′):
PreQ1: PreQ1 riboswitch RNA pseudoknot, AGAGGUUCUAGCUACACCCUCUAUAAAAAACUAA. From B. subtilis. Hit rate about 0.7% of about 24,000 compounds.
SAM-II: SAM-II riboswitch RNA pseudoknot, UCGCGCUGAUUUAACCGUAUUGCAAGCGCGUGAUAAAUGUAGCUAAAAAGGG. Hit rate about 1% of about 21,000 compounds.
TPP: TPP riboswitch RNA three-way junction, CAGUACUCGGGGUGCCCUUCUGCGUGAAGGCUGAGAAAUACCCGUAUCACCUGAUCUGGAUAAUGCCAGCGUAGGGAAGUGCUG. Hit rate about 0.7% of about 24,000 compounds.

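Each compound is printed as two spots on a slide made to bind it covalently, so it has no test concentration; the read-out is fluorescence of the bound, labelled oligonucleotide. The data file lists only calls. An earlier report of the laboratory on the PreQ1, TPP and SAM-II riboswitches (doi:10.1038/s41467-019-09493-3) used 1 µM RNA for 2 h and required a mean Z-score above 3 (spot signal-to-noise against the whole library), a score well above that on a control array, and duplicate spots agreeing (coefficient of variation under 100); it then also set aside compounds that hit other targets, which this list keeps. The cut-offs behind this list may differ. The calls come from the array alone, and fixing a compound to the slide can hide its binding.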
“hit” means called a hit, “no hit” means screened and not called a hit.
The compounds are a random part of those screened.
A target missing from an entry has no call listed here.

For CC1=C(c2ccc(C(C)C)cc2)S(=O)(=O)N=C1NCc1ccccc1F the calls were PreQ1: no hit; TPP: no hit. With CNCCN(C)S(=O)(=O)c1cccc(C(=O)N2CCC(COC)C2)c1 (centres undefined) the screen gave PreQ1: no hit; SAM-II: no hit; TPP: no hit. With Cn1ccnc1CN(CCO)C(=O)c1cccc(-c2ncc[nH]2)c1 the screen gave PreQ1: no hit; SAM-II: no hit; TPP: no hit. Cc1nc2c(c(Nc3cccc(C(F)(F)F)c3)n1)CCC2 was scored PreQ1: no hit; TPP: no hit. Calls for CCC1CC(C)(c2csc(Nc3ccc(C)cc3)n2)OC1=O (centres undefined) are PreQ1: no hit; SAM-II: no hit; TPP: no hit. c1ccc(CCNc2c3c(nc4nncn24)CCC3)cc1 was scored PreQ1: no hit; TPP: no hit. With O=C(CCCc1nc(-c2ccncc2)no1)N1CCCC2(CCNCC2)CC1 the screen gave PreQ1: no hit; SAM-II: no hit; TPP: no hit. Calls for Cc1nc(C)c(CNCC(=O)NCCc2ccc(Cl)cc2)s1 are PreQ1: no hit; SAM-II: no hit; TPP: no hit.

For CCCc1nc(-c2cc3cccc(C)c3nc2NCc2ccc(OC)cc2)no1 the calls were PreQ1: no hit; TPP: no hit. For Cc1ccc(CNCCNCC(C)O)s1 (centres undefined) the calls were PreQ1: no hit; SAM-II: no hit; TPP: no hit. For Nc1c(C(=O)N2CCc3ccccc3C2)sc2nc3c(cc12)CCCCCC3 the calls were PreQ1: no hit; SAM-II: no hit; TPP: no hit. CCc1ccc(C(=O)N2CCC3(CCCN(CCO)C3=O)C2)[nH]1 (centres undefined) was scored PreQ1: no hit; SAM-II: no hit; TPP: no hit. With COCC(=O)OC1CCn2c1nc1c2C(=O)C(C)=C(NC(C)=O)C1=O (centres undefined) the screen gave PreQ1: no hit; SAM-II: no hit; TPP: no hit. Calls for Cc1cccc(CN2c3ccccc3C3=C(C(c4ccccc4Cl)C(C#N)=C(N)O3)S2(=O)=O)c1 (centres undefined) are PreQ1: no hit; TPP: no hit. For CN1CCOc2cc(C(=O)N[C@@H]3C[C@@H](CO)N(C)C3)ccc21 the calls were PreQ1: no hit; SAM-II: no hit; TPP: no hit. CCc1nnc2c3ccccc3nc(Nc3ccc(C)cc3)n12 was scored PreQ1: no hit; SAM-II: no hit; TPP: no hit.

C[N+](C)(C)CC(=O)O was scored PreQ1: hit; SAM-II: no hit; TPP: no hit. With Cc1ccc(C(C)Cc2c(-c3ccccc3)ncn2CCCO)o1 (centres undefined) the screen gave PreQ1: no hit; SAM-II: no hit; TPP: no hit. With Cc1nc(-c2cc3ccccc3nc2NCC2CCCO2)no1 (centres undefined) the screen gave PreQ1: no hit; TPP: no hit. Cc1cccc(C)c1NC(=O)NCc1ccco1 was scored PreQ1: no hit; SAM-II: no hit; TPP: no hit. For O=C(Cc1nc2ccccc2[nH]1)N1CCC(Cc2cccc(CO)c2)C1 (centres undefined) the calls were PreQ1: no hit; SAM-II: no hit; TPP: no hit. With O=C1N(CCCCOc2ccccc2)c2ccccc2NC12CCNCC2 the screen gave PreQ1: no hit; SAM-II: no hit; TPP: no hit. Calls for Cc1ccccc1C(OCCN(C)C)c1ccccc1 (centres undefined) are PreQ1: no hit; SAM-II: no hit; TPP: no hit. O=[N+]([O-])c1cc(F)c2cccnc2c1O was scored PreQ1: no hit; SAM-II: no hit; TPP: no hit.

For N=C(N)c1ccc(OCCCCCOc2ccc(C(=N)N)cc2)cc1 the calls were PreQ1: no hit; SAM-II: no hit; TPP: no hit. O=C(O)CNc1ncnc2sc3c(c12)CCCC3 was scored PreQ1: no hit; SAM-II: no hit; TPP: no hit. O=C(O)c1ccc(OC2CCN(C(=O)CC3COCCN3)CC2)cc1 (centres undefined) was scored PreQ1: no hit; SAM-II: no hit; TPP: no hit. O=C(c1ncccc1O)N1C[C@H](CO)C[C@H](CN2CCOCC2)C1 was scored PreQ1: no hit; SAM-II: no hit; TPP: no hit. CCOc1ccc(NC(=O)c2cnn(C(=O)c3ccccc3)c2N)cc1 was scored PreQ1: no hit; SAM-II: no hit; TPP: no hit.

Some entries from above, unchanged:

Compound,PreQ1,SAM-II,TPP
O=C(CCCc1nc(-c2ccncc2)no1)N1CCCC2(CCNCC2)CC1,no hit,no hit,no hit
CCc1ccc(C(=O)N2CCC3(CCCN(CCO)C3=O)C2)[nH]1 (centres undefined),no hit,no hit,no hit

Data from the ROBIN nucleic acid binder screens, doi:10.1002/anie.202211358.